This is one part of the list. Most entries show no effect beyond the scatter of the controls.

Amino acid sequences for entries named in this document (tags omitted). A change or cut given only in a name is not applied to a line headed by its entry.
UniProt O70566: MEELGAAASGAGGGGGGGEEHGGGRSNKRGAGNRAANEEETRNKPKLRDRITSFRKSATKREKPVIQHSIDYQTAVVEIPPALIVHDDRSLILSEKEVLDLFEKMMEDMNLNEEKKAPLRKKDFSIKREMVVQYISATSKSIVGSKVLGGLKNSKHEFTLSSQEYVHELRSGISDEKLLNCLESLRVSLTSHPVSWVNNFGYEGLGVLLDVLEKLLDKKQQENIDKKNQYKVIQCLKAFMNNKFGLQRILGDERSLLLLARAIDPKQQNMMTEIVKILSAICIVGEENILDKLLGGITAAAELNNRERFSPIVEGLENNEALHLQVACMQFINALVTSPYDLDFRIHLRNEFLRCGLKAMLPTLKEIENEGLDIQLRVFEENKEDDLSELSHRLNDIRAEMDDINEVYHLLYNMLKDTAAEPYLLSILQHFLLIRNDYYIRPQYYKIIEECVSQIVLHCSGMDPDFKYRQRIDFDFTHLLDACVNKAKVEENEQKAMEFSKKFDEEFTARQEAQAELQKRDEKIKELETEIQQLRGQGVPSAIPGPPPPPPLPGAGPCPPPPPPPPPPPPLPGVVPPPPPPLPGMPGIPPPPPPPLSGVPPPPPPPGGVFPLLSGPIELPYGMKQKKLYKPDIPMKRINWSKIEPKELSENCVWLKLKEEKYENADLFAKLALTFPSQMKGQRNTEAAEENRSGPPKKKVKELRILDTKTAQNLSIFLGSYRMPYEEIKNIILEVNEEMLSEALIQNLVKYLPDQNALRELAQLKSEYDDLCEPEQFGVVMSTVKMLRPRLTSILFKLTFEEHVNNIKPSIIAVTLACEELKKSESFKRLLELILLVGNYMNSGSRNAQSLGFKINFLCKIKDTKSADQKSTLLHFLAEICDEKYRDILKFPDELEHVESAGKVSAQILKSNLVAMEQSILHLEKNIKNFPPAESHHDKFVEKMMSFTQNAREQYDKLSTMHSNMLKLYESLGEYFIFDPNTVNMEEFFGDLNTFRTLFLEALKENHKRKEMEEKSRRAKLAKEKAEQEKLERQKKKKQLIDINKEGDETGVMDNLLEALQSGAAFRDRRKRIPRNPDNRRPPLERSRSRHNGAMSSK
UniProt O55111: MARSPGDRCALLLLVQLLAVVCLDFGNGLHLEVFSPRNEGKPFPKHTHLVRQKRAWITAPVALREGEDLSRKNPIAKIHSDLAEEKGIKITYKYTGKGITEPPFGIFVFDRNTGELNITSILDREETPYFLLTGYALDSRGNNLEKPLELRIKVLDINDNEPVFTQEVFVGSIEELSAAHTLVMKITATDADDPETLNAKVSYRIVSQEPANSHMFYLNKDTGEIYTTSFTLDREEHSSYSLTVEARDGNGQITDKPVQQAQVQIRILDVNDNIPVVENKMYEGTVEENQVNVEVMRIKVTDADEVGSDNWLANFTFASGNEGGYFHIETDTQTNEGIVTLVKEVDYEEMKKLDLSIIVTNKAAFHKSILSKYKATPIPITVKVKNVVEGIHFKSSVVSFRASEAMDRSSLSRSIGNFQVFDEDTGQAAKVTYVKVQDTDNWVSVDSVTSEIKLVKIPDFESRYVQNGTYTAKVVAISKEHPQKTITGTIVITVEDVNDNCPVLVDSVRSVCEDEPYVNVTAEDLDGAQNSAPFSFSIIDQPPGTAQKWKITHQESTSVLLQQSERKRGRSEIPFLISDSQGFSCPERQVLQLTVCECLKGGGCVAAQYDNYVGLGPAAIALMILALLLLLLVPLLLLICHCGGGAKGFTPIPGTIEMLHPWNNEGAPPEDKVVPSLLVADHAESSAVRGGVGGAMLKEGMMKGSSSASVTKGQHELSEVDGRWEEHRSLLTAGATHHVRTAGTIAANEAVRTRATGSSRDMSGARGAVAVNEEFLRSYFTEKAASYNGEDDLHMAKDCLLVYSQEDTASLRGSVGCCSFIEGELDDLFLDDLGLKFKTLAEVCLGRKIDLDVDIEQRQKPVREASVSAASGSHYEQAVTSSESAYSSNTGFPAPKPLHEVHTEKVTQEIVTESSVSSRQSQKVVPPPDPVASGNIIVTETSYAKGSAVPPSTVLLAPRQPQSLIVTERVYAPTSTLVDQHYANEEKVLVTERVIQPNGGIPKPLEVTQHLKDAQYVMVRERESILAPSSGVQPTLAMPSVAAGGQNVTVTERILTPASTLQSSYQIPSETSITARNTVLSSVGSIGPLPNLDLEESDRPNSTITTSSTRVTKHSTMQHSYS
UniProt O54946: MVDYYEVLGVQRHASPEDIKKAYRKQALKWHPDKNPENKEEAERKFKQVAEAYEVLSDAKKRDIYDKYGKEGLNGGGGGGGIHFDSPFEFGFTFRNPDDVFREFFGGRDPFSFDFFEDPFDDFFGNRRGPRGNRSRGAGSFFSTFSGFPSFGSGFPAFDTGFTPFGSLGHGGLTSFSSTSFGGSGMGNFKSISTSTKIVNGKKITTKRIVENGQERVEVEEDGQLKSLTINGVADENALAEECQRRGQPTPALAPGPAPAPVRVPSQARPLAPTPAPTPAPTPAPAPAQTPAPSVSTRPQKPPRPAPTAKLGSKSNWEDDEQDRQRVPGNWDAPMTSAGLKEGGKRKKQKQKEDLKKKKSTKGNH
UniProt O35988: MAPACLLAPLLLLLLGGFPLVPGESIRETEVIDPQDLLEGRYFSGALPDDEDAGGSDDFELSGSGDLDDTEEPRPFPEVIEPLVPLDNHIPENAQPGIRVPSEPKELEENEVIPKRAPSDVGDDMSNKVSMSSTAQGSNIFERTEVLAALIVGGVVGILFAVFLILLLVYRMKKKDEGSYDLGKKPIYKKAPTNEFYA
UniProt O70572: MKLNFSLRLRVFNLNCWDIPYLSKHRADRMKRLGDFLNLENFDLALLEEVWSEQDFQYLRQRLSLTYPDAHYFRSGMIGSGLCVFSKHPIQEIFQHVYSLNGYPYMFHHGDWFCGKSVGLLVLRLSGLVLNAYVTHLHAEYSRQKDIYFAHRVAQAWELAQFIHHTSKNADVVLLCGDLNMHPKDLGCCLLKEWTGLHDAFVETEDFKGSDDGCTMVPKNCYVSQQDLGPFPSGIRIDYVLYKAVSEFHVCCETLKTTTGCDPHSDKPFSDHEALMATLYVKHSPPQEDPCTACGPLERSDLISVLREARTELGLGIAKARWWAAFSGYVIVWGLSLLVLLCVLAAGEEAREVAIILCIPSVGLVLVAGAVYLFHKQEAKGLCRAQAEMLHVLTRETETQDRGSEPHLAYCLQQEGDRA
UniProt O88413: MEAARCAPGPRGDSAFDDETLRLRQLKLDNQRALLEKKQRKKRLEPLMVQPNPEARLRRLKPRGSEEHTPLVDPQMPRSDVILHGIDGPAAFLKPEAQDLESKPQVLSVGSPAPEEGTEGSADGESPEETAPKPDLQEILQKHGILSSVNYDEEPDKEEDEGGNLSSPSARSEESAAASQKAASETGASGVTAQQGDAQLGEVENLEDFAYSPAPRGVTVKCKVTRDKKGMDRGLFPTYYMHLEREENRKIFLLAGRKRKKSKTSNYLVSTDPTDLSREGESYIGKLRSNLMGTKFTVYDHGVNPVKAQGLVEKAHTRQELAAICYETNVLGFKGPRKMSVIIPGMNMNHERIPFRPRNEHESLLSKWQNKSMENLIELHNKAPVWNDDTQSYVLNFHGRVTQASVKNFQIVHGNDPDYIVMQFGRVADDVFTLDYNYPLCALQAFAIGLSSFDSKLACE
UniProt O88888: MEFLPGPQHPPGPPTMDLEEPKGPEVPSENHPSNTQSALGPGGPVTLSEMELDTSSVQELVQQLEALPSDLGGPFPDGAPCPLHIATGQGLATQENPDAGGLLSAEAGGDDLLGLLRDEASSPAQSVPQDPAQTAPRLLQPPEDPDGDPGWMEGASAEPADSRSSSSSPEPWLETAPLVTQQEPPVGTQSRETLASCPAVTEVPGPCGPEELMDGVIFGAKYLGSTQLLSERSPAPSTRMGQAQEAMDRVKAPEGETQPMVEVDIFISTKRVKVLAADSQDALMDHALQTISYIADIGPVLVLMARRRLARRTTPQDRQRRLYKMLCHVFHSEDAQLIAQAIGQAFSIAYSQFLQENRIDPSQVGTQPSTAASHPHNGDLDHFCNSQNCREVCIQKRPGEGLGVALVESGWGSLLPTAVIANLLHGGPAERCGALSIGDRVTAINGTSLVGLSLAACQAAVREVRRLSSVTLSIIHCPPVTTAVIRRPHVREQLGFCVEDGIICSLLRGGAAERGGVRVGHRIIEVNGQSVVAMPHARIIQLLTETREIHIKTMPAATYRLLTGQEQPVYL
UniProt O70333, whole entry: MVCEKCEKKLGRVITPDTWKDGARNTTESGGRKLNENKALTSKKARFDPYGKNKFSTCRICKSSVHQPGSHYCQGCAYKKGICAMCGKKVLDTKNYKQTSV
UniProt O88559, whole entry: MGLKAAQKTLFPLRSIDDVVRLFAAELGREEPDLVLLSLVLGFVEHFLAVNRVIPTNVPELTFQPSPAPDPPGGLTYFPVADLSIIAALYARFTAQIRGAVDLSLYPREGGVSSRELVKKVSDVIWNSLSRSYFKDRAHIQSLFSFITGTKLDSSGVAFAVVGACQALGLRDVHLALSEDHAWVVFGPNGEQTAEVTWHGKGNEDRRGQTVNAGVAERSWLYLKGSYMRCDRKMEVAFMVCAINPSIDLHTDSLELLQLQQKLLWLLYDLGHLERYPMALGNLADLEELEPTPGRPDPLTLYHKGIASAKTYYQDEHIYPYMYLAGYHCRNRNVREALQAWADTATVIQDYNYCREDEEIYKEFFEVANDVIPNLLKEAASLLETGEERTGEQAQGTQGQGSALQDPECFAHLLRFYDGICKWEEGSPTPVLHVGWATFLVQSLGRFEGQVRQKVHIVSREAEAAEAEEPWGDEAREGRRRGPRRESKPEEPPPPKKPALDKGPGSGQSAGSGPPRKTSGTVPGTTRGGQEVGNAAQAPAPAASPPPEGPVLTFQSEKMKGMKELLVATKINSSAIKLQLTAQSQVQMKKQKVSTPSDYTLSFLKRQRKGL
UniProt O35739: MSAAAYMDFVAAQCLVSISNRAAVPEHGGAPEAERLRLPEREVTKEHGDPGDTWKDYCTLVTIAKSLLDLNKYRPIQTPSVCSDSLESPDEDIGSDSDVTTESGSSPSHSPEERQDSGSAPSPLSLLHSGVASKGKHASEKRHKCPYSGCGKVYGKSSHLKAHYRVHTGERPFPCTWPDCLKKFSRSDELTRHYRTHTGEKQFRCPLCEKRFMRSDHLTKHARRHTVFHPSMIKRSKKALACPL
UniProt O35682: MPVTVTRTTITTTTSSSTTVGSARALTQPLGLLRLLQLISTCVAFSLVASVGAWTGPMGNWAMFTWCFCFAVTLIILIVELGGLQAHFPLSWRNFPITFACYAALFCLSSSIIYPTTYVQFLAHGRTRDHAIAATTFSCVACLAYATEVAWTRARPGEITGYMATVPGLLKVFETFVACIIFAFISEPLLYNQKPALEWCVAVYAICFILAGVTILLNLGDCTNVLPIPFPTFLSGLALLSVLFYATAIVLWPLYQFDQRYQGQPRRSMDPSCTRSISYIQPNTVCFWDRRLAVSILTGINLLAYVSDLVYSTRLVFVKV
UniProt O70303: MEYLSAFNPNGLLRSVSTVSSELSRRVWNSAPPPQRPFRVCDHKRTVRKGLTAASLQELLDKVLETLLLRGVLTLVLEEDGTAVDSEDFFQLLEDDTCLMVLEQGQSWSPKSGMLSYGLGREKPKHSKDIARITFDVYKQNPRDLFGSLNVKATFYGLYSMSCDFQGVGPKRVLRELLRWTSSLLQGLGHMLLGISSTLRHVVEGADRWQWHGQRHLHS
UniProt O70362: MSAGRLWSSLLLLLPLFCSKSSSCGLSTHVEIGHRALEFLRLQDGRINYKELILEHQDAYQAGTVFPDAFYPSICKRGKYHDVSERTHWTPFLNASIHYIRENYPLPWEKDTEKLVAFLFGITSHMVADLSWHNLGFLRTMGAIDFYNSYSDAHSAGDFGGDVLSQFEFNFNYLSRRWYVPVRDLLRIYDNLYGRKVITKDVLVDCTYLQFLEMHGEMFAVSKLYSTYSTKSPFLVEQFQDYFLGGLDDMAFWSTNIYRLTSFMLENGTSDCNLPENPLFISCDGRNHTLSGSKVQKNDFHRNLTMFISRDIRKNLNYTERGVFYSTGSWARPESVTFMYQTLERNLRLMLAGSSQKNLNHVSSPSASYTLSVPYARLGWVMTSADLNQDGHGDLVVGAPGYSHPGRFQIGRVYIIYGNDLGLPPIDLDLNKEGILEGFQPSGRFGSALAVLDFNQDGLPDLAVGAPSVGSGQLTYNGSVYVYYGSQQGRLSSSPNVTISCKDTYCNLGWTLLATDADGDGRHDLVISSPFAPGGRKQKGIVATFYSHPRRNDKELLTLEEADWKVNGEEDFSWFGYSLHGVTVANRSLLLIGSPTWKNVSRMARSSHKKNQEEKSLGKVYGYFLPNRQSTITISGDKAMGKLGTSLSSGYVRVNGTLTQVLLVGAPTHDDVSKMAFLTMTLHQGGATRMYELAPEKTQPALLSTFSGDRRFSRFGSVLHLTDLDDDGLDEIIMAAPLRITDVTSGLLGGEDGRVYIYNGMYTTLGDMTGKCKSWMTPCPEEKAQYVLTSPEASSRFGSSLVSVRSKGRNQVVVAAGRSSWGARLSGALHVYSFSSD

Compound in the test: CN[C@@H]1C[C@H]2O[C@@](C)([C@@H]1OC)n1c3ccccc3c3c4c(c5c6ccccc6n2c5c31)C(=O)NC4 [staurosporine]
Briefly: log2 fold change of tryptic peptide abundance, ligand vs vehicle (limited proteolysis) (log2 ratio); higher = more trypsin-susceptible (destabilized). As to conditions: ligand concentration: 20 uM; sample: mouse liver crude lysate; replicate design: treated separately.
As to “UniProt O54865 (peptide sequence: INVSEYTYR, peptide start residue: 562)”, the log2 fold change was -0.339.

Consider “UniProt O54984 (peptide sequence: LLNFPTIVER, peptide start residue: 176)”, for which the log2 fold change is 0.103.

“UniProt O70566 (peptide sequence: AKVEENEQK, peptide start residue: 487)”: the log2 fold change amounted to 0.268.

Turning to “UniProt O54826 (peptide sequence: TCYICDEQGR, peptide start residue: 136)”, the log2 fold change was -0.51.

As to “UniProt O55111 (peptide sequence: GQHELSEVDGR, peptide start residue: 713)”, the log2 fold change was -0.252.

For “UniProt O55203 (peptide sequence: DCLKTCLFQK, peptide start residue: 268)”, the log2 fold change was found to be 0.305.

As for “UniProt O35638 (peptide sequence: YVGWTMHDK, peptide start residue: 331)”, the log2 fold change stood at 0.692.

As for “UniProt O54946 (peptide sequence: RGQPTPALAPGPAPAPVRVPSQAR, peptide start residue: 246)”, the log2 fold change was -0.681.

For “UniProt O70496 (peptide sequence: HLVVVDNHNQVVGLVTR, peptide start residue: 766)”, the log2 fold change was -0.289.

Turning to “UniProt O35988 (peptide sequence: RAPSDVGDDMSNK, peptide start residue: 116)”, the log2 fold change was -0.0957.

For the target “UniProt O70572 (peptide sequence: GSDDGCTMVPK, peptide start residue: 209)”, the log2 fold change is 0.46.

For “UniProt O88413 (peptide sequence: GSEEHTPLVDPQMPR, peptide start residue: 64)”, the log2 fold change amounted to 0.261.

For the target “UniProt O88866 (peptide sequence: RLDEAEAR, peptide start residue: 157)”, the log2 fold change was determined as 0.221.

Take “UniProt O35621 (peptide sequence: KRGTFIEFR, peptide start residue: 111)”: the log2 fold change worked out at 0.115.

With “UniProt O35657 (peptide sequence: LIVCGHGTLER, peptide start residue: 209)”, the log2 fold change was 0.372.

On to “UniProt O88888 (peptide sequence: IIEVNGQSVVAMPHAR, peptide start residue: 523)”, for which the log2 fold change was -0.126.

On to “UniProt O70333 (peptide sequence: VITPDTWK, peptide start residue: 13)”, for which the log2 fold change was determined as 0.25.

With “UniProt O35887 (peptide sequence: GHDLNEDGLVSWEEYK, peptide start residue: 115)”, the log2 fold change was -0.102.

As for “UniProt O88559 (peptide sequence: GQTVNAGVAER, peptide start residue: 208)”, the log2 fold change is -0.259.

Turning to “UniProt O35710 (peptide sequence: TNQVAIAQTLECKESGR, peptide start residue: 260)”, the log2 fold change was 0.37.

Take “UniProt O88512 (peptide sequence: LQDLIEEIR, peptide start residue: 8)”: the log2 fold change was -0.0445.

“UniProt O35739 (peptide sequence: QDSGSAPSPLSLLHSGVASK, peptide start residue: 115)”: the log2 fold change is -0.341.

Turning to “UniProt O35551 (peptide sequence: ATVEQLMFEEK, peptide start residue: 791)”, the log2 fold change was determined as 0.362.

Regarding “UniProt O70378 (peptide sequence: FTMDCAAPTIHVYEQHENR, peptide start residue: 129)”, the log2 fold change was -0.457.

“UniProt O35682 (peptide sequence: SMDPSCTR, peptide start residue: 268)”: the log2 fold change is -0.00485.

Take “UniProt O70303 (peptide sequence: ITFDVYK, peptide start residue: 133)”: the log2 fold change is -0.167.

Consider “UniProt O88327 (peptide sequence: QAGETIASLTDVTKR, peptide start residue: 108)”, for which the log2 fold change is -0.139.

Consider “UniProt O70362 (peptide sequence: LYSTYSTK, peptide start residue: 224)”, for which the log2 fold change is -0.217.
